Data published in the supplement of paper PMC12067093, “Discovery and optimisation of a covalent ligand for TRIM25 and its application to targeted protein ubiquitination” (Chemical Science, 2025).
The list shows a part of the results.

The chains behind the UniProt entries cited, without tags or fusion partners. Where a name states a change or a piece, a line headed by the entry shows the natural chain unless it says otherwise.
UniProt P50570: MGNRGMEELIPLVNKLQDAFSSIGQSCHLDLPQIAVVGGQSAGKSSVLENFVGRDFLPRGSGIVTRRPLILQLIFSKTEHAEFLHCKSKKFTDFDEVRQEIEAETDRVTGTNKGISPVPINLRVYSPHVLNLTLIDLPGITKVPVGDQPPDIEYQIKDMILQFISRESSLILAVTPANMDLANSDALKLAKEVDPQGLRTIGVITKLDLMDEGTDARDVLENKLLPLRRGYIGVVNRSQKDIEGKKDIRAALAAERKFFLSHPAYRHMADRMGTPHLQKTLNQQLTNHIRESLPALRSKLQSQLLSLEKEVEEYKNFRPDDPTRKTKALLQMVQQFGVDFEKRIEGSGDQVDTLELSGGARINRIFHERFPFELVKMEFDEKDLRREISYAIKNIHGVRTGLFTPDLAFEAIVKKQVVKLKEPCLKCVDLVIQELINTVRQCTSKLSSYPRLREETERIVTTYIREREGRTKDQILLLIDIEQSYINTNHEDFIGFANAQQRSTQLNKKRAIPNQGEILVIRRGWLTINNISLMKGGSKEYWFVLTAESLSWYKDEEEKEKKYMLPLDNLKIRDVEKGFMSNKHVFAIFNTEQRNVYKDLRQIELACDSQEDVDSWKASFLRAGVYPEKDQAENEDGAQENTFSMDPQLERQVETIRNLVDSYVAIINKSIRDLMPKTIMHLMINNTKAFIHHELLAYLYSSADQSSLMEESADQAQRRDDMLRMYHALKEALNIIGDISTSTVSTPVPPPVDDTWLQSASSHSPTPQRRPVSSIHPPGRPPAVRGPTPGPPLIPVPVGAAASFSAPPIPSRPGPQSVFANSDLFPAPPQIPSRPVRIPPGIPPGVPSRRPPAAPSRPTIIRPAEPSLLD
UniProt O60832: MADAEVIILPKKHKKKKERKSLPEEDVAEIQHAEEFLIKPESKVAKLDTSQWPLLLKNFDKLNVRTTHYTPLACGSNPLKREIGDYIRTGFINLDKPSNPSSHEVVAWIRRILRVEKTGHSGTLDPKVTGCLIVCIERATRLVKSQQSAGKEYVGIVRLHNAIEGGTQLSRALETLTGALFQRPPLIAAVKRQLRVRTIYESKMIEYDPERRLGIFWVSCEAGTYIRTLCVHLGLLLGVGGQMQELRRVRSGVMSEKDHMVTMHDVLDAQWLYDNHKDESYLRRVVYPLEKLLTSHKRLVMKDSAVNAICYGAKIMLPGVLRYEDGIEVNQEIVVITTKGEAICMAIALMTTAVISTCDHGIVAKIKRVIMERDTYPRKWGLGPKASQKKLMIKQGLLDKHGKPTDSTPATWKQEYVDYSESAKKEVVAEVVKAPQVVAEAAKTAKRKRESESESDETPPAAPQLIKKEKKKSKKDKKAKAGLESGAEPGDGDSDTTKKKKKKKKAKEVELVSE
UniProt Q9UNQ2: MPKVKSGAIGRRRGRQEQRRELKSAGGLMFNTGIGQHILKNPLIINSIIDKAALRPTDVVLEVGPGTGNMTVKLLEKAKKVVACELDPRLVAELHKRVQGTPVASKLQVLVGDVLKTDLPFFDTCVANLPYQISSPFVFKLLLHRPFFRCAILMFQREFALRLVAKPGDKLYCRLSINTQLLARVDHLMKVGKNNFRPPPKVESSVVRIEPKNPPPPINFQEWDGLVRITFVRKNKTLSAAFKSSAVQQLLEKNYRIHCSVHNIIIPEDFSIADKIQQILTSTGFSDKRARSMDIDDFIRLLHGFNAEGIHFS
UniProt Q96HY7: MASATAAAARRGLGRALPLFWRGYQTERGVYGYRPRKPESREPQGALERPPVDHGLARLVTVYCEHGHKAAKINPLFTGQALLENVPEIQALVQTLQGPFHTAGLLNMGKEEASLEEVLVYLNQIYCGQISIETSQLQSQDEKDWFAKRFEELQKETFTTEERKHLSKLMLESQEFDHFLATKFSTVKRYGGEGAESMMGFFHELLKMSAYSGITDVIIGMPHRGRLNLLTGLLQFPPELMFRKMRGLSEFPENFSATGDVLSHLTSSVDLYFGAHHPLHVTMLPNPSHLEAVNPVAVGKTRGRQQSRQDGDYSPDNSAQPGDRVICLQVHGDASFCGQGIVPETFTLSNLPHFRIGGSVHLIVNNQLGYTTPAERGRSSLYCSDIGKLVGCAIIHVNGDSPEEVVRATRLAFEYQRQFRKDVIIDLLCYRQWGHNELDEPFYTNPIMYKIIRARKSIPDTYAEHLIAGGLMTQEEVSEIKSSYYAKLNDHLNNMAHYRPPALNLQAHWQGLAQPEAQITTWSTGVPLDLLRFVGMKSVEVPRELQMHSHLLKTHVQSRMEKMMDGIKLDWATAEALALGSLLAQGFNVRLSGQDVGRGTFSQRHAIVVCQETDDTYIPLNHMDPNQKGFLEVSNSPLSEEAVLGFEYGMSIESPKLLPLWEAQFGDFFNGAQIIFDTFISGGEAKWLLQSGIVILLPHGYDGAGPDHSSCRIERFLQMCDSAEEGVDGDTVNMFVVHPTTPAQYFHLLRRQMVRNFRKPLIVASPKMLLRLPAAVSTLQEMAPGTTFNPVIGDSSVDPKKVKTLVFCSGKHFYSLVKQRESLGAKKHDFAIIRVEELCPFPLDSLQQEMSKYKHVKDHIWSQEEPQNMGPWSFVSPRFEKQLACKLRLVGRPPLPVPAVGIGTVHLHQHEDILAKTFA
UniProt O43143: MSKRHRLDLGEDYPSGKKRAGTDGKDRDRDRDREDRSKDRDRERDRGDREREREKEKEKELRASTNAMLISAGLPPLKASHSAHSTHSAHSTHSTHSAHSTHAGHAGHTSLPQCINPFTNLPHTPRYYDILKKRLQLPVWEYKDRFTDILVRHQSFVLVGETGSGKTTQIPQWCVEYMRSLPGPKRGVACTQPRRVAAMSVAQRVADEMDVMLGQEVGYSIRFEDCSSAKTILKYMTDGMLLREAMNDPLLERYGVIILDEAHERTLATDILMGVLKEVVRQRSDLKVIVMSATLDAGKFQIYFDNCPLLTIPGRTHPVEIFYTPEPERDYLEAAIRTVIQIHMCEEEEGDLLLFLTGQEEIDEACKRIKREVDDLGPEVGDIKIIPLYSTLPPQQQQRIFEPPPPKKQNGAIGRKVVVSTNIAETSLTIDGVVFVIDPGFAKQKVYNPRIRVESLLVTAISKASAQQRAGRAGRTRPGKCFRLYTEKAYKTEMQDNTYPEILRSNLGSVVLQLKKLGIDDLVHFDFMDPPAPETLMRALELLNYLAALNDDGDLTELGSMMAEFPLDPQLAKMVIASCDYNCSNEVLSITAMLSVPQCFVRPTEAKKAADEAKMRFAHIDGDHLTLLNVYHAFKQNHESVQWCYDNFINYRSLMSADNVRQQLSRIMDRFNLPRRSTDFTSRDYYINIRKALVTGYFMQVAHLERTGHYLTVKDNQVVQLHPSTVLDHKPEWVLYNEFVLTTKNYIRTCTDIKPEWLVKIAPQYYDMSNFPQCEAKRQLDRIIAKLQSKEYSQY
UniProt P49184: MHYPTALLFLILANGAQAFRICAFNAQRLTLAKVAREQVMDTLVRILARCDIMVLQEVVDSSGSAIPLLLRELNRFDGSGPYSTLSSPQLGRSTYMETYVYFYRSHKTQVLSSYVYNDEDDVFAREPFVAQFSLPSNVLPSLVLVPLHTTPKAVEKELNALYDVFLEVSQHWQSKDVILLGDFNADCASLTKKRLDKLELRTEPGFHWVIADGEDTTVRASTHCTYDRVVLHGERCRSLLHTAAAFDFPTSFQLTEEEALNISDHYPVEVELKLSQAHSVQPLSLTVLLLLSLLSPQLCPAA
UniProt Q9NSV4, whole entry, looked up: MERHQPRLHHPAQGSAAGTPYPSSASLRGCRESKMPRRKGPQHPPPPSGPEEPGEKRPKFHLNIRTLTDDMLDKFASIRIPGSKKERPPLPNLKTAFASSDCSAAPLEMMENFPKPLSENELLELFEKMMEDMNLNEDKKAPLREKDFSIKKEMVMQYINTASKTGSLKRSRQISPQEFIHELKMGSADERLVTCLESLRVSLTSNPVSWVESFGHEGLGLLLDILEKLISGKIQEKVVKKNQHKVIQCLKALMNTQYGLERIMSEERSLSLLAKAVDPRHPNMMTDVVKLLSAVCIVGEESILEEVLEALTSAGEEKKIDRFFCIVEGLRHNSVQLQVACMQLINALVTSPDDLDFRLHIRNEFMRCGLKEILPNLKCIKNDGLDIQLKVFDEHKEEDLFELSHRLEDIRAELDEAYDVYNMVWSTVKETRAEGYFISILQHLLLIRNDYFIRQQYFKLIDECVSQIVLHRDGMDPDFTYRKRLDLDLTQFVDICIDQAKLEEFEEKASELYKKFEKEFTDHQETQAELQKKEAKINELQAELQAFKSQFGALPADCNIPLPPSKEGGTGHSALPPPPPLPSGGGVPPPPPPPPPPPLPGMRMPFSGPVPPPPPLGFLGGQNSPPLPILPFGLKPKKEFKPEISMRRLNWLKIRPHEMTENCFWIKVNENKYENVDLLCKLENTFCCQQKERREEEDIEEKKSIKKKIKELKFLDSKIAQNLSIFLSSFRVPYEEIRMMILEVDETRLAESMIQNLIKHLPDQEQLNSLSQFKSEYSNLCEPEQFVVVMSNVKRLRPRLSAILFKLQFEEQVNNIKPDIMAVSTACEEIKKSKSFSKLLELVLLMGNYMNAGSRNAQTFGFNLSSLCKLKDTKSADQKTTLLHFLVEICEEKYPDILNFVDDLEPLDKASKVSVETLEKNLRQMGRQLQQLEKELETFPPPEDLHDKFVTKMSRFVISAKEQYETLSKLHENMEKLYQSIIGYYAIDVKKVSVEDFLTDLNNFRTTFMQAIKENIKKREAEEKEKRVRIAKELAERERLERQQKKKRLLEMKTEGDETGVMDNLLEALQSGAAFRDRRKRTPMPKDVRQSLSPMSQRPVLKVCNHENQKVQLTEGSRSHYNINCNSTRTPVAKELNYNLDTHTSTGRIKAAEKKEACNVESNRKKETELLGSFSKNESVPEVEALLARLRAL
UniProt Q9H2U1: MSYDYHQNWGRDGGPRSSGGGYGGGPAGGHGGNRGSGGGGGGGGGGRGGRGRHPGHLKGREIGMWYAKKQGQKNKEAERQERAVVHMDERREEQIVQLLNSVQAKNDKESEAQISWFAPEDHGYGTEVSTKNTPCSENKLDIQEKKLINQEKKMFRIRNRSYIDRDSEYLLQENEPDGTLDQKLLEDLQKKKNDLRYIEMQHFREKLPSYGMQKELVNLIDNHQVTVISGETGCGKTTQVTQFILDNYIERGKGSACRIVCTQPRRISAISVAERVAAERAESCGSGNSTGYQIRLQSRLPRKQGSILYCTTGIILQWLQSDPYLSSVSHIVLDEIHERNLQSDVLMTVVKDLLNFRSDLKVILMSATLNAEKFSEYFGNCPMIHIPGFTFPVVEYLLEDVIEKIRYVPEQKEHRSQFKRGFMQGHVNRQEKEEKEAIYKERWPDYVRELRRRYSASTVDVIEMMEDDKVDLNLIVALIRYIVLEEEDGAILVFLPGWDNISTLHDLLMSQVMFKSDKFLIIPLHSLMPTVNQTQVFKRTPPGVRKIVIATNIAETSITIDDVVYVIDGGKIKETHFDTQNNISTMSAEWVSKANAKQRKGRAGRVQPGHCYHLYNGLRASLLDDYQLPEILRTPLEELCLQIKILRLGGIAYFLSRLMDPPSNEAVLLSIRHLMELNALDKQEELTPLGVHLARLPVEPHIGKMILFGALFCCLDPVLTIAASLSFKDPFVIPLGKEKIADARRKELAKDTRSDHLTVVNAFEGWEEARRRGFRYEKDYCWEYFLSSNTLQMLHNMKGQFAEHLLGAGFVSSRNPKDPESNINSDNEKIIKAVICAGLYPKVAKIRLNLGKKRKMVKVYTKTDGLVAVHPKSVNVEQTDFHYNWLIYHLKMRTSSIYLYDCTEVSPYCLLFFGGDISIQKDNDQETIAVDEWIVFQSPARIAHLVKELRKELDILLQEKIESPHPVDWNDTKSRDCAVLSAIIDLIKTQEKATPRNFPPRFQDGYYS
UniProt P36957: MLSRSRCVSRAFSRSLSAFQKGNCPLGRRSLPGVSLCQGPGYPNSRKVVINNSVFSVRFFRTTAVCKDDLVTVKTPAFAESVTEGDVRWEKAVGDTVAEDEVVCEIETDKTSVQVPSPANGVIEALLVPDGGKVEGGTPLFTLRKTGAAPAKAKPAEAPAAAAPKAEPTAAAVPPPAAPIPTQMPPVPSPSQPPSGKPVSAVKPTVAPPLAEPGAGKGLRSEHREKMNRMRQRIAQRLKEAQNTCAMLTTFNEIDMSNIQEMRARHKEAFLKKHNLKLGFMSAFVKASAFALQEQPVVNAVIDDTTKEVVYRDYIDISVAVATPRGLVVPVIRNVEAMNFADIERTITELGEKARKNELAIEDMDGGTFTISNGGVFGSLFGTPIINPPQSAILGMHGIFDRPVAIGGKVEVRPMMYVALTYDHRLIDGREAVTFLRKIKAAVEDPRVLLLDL

Compound: CC1Cc2ccccc2N1C(=O)C1CCCN(C1)C(=O)CCl (mixture of isomers) [TRIM25 ligand 11 (diastereomer mixture)]
Test: probe-labelled cysteine peptide fold change vs DMSO (competition) (log2 fold change); higher = less target engagement (more negative = stronger competition)
Settings: THP-1, incubation time: 4 h
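Further: competitive chemoproteomic profiling in live THP-1 cells with an iodoacetamide desthiobiotin (IA-DTB) probe, comparing probe-labelled peptide intensities in compound-treated cells against DMSO-treated controls.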

Target | probe-labelled cysteine peptide fold change (10 µM) | probe-labelled cysteine peptide fold change (50 µM)
DHX29_Q7Z478_659_NSLCGYQIR (UniProt Q7Z478) | 0.0451 | 0.113
DNM2_P50570_86_TEHAEFLHCK (UniProt P50570) | -0.0461 | 0.0442
DKC1_O60832_131_VTGCLIVCIER (UniProt O60832) | -0.0126 | 0.125
DIMT1_Q9UNQ2_259_IHCSVHNIIIPEDFSIADK (UniProt Q9UNQ2) | 0.326 | -0.0863
DHTKD1_Q96HY7_808_TLVFCSGK (UniProt Q96HY7) | 0.0458 | 0.119
DIS3L_Q8TF46_962_CHSDTIR (UniProt Q8TF46) | 0.154 | -0.0623
DHX15_O43143_644_QNHESVQWCYDNFINYR (UniProt O43143) | 0.237 | 0.162
DHX15_O43143_774_IAPQYYDMSNFPQCEAK (UniProt O43143) | 0.00644 | -0.154
DNASE1L1_P49184_187_DVILLGDFNADCASLTK (UniProt P49184) | 0.161 | 0.0579
DHRS7_Q9Y394_233_TELATYPGIIVSNICPGPVQSNIVENSLAGEVTK (UniProt Q9Y394) | -0.0824 | 0.0763
DIAPH3_Q9NSV4_249_VIQCLK (UniProt Q9NSV4) | 0.0243 | 0.0391
DISC1_Q9NRI5_844_EAAASCMTAGVHEAQA (UniProt Q9NRI5) | -0.074 | -0.261
DHX15_O43143_174_TTQIPQWCVEYMR (UniProt O43143) | -0.151 | 0.0488
DHX33_Q9H6R0_319_HLPDGCPAMLVLPLYASLPYAQQLR (UniProt Q9H6R0) | 0.167 | 0.109
DNM2_P50570_607_QIELACDSQEDVDSWK (UniProt P50570) | 0.0299 | -0.132
DHX40_Q8IX18_153_YMTDGCLLK (UniProt Q8IX18) | 0.0746 | 0.0436
DIDO1_Q9BTC0_261+273_AAQDIKDEEPGDLGRPKPECEGYDPNALYCICR (UniProt Q9BTC0) | -0.11 | -0.0252
DNAJA3_Q96EY1_253+256_VQHCHYCGGSGMETINTGPFVMR (UniProt Q96EY1) | -0.169 | -0.0973
DHX36_Q9H2U1_977_SRDCAVLSAIIDLIK (UniProt Q9H2U1) | -0.0479 | -0.156
DLST_P36957_245_EAQNTCAMLTTFNEIDMSNIQEMR (UniProt P36957) | 0.0231 | -0.0362
DHX8_Q14562_280_VTSIMQFGCFVQLEGLR (UniProt Q14562) | 0.143 | 0.042
DNAJA1_P31689_261_RGEDLFMCMDIQLVEALCGFQK (UniProt P31689) | 0.0434 | 0.0878
DNAJC2_Q99543_26_GTAITHALTSASTLCQVEPVGR (UniProt Q99543) | -0.126 | -0.0558

Retrieved one by one from the entries so far, two records:
Target | probe-labelled cysteine peptide fold change (10 µM) | probe-labelled cysteine peptide fold change (50 µM)
DHX15_O43143_644_QNHESVQWCYDNFINYR (UniProt O43143) | 0.237 | 0.162
DHTKD1_Q96HY7_808_TLVFCSGK (UniProt Q96HY7) | 0.0458 | 0.119
